# Experimental data from the supplement of paper PMC8728848.
# The other results are listed elsewhere or left out.
# B1: AT5G17240(42) (Arabidopsis thaliana), Q6NQJ8 (protein)
# chain: MDLEHQTMETFLRWAAEIGISDSIDSSRFRDSCLGHSLSVSDFPDAGGRGLGAARELKKGELVLKVPRKALMTTESIIAKDLKLSDAVNLHNSLSSTQILSVCLLYEMSKEKKSFWYPYLFHIPRDYDLLATFGNFEKQALQVEDAVWATEKATAKCQSEWKEAGSLMKELELKPKFRSFQAWLWASATISSRTLHVPWDSAGCLCPVGDLFNYDAPGDYSNTPQGPESANNVEEAGLVVETHSERLTDGGFEEDVNAYCLYARRNYQLGEQVLLCYGTYTNLELLEHYGFMLEENSNDKVFIPLETSLFSLASSWPKDSLYIHQDGKLSFALISTLRLWLIPQSQRDKSVMRLVYAGSQISVKNEILVMKWMSEKCGSVLRDLPTSVTEDTVLLHNIDKLQDPELRLEQKETEAFGSEVRAFLDANCLWDVTVLSGKPIEFSRKTSRMLSKWRWSVQWRLSYKRTLADCISYCNEKMNNLLGTQDRLRDL
# What was measured:
# Assay in all cases: glycan array binding signal (z-score within array); higher = stronger binding
# Settings in all cases: glycan notation: IUPAC condensed, linker removed
# [1] = biological target: Gal(b1-3)GlcNAc(b1-2)Man(a1-3)[Gal(b1-3)GlcNAc(b1-2)Man(a1-6)]Man(b1-4)GlcNAc(b1-4)GlcNAc
# In short: (§1)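 Glycan array data came from 3228 arrays in the Consortium for Functional Glycomics database, and only arrays with an available protein sequence were kept. Glycan names were put into IUPAC-condensed notation, and columns mapping to the same glycan were averaged. The binding signal is a within-array Z-score, averaged across arrays of one protein sequence run at different concentrations or buffers and across linkers. A negative Z-score can be read as non-binding.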
# [2] = biological target: Gal(b1-3)GlcNAc(b1-2)Man(a1-3)[Gal(b1-3)GlcNAc(b1-2)Man(a1-6)]Man(b1-4)GlcNAc(b1-4)[Fuc(a1-6)]GlcNAc
# In short: as §1
# [3] = biological target: Gal(b1-3)GlcNAc(b1-2)Man(a1-3)[GlcNAc(b1-4)][Gal(b1-3)GlcNAc(b1-2)Man(a1-6)]Man(b1-4)GlcNAc(b1-4)GlcNAc
# In short: as §1
# [4] = biological target: Gal(b1-3)GlcNAc(b1-2)[Gal(b1-3)GlcNAc(b1-6)]Man(a1-6)[Gal(b1-3)GlcNAc(b1-2)Man(a1-3)]Man(b1-4)GlcNAc(b1-4)GlcNAc
# In short: as §1
# [5] = biological target: Gal(b1-3)GlcNAc(b1-3)Gal(b1-3)GlcNAc
# In short: as §1
# [6] = biological target: Gal(b1-3)GlcNAc(b1-3)Gal(b1-4)Glc
# In short: as §1
# [7] = biological target: Gal(b1-3)GlcNAc(b1-3)Gal(b1-4)GlcNAc
# In short: as §1
# [8] = biological target: Gal(b1-3)GlcNAc(b1-3)Gal(b1-4)GlcNAc(b1-2)Man(a1-3)[Gal(b1-3)GlcNAc(b1-3)Gal(b1-4)GlcNAc(b1-2)Man(a1-6)]Man(b1-4)GlcNAc(b1-4)GlcNAc
# In short: as §1
# [9] = biological target: Gal(b1-3)GlcNAc(b1-3)Gal(b1-4)GlcNAc(b1-2)[Gal(b1-3)GlcNAc(b1-3)Gal(b1-4)GlcNAc(b1-6)]Man(a1-6)[Gal(b1-3)GlcNAc(b1-3)Gal(b1-4)GlcNAc(b1-2)Man(a1-3)]Man(b1-4)GlcNAc(b1-4)[Fuc(a1-6)]GlcNAc
# In short: as §1
# [10] = biological target: Gal(b1-3)GlcNAc(b1-3)Gal(b1-4)GlcNAc(b1-3)Gal(b1-4)GlcNAc(b1-2)[Gal(b1-3)GlcNAc(b1-3)Gal(b1-4)GlcNAc(b1-3)Gal(b1-4)GlcNAc(b1-6)]Man(a1-6)[Gal(b1-3)GlcNAc(b1-3)Gal(b1-4)GlcNAc(b1-3)Gal(b1-4)GlcNAc(b1-2)Man(a1-3)]Man(b1-4)GlcNAc(b1-4)[Fuc(a1-6)]GlcNAc
# In short: as §1
# [11] = biological target: Gal(b1-3)GlcNAc(b1-3)Gal(b1-4)GlcNAc(b1-6)[Gal(b1-3)GlcNAc(b1-3)]Gal(b1-4)Glc
# In short: as §1
# [12] = biological target: Gal(b1-3)GlcNAc(b1-3)Gal(b1-4)[Fuc(a1-3)]GlcNAc
# In short: as §1
# [13] = biological target: Gal(b1-3)GlcNAc(b1-3)Gal(b1-4)[Fuc(a1-3)]GlcNAc(b1-6)[Gal(b1-3)GlcNAc(b1-3)]Gal(b1-4)Glc
# In short: as §1
# [14] = biological target: Gal(b1-3)GlcNAc(b1-3)GalNAc
# In short: as §1
# [15] = biological target: Gal(b1-3)GlcNAc(b1-6)Gal(b1-4)GlcNAc
# In short: as §1
# [16] = biological target: Gal(b1-3)GlcNAc(b1-6)GalNAc
# In short: as §1
# [17] = biological target: Gal(b1-3)GlcNAc(b1-6)[Gal(b1-3)]GalNAc
# In short: as §1
# [18] = biological target: Gal(b1-3)GlcNAc6S
# In short: as §1
# [19] = biological target: Gal(b1-3)[Fuc(a1-4)]GlcNAc
# In short: as §1
# [20] = biological target: Gal(b1-3)[Fuc(a1-4)]GlcNAc(b1-2)Man
# In short: as §1
# [21] = biological target: Gal(b1-3)[Fuc(a1-4)]GlcNAc(b1-2)Man(a1-3)[Gal(b1-3)[Fuc(a1-4)]GlcNAc(b1-2)Man(a1-6)]Man(b1-4)GlcNAc(b1-4)[Fuc(a1-6)]GlcNAc
# In short: as §1
# [22] = biological target: Gal(b1-3)[Fuc(a1-4)]GlcNAc(b1-3)Gal(b1-3)[Fuc(a1-4)]GlcNAc
# In short: as §1
# [23] = biological target: Gal(b1-3)[Fuc(a1-4)]GlcNAc(b1-3)Gal(b1-4)[Fuc(a1-3)]GlcNAc
# In short: as §1
# [24] = biological target: Gal(b1-3)[Fuc(a1-4)]GlcNAc(b1-6)GalNAc
# In short: as §1
# [25] = biological target: Gal(b1-3)[GlcNAc(b1-6)]GalNAc
# In short: as §1
# [26] = biological target: Gal(b1-3)[Neu5Ac(a2-6)]GalNAc
# In short: as §1
# [27] = biological target: Gal(b1-3)[Neu5Ac(a2-6)]GlcNAc(b1-4)Gal(b1-4)Glc
# In short: as §1
# [28] = biological target: Gal(b1-3)[Neu5Ac(b2-6)]GalNAc
# In short: as §1
# [29] = biological target: Gal(b1-4)Gal
# In short: as §1
# [30] = biological target: Gal(b1-4)GalNAc(a1-3)[Fuc(a1-2)]Gal(b1-4)GlcNAc
# In short: as §1
# [31] = biological target: Gal(b1-4)GalNAc(b1-3)[Fuc(a1-2)]Gal(b1-4)GlcNAc
# In short: as §1
# [32] = biological target: Gal(b1-4)Glc
# In short: as §1
# [33] = biological target: Gal(b1-4)Glc6S
# In short: as §1
# [34] = biological target: Gal(b1-4)GlcNAc
# In short: as §1
# [35] = biological target: Gal(b1-4)GlcNAc(a1-6)Gal(b1-4)GlcNAc
# In short: as §1
# [36] = biological target: Gal(b1-4)GlcNAc(b1-2)Man
# In short: as §1
# [37] = biological target: Gal(b1-4)GlcNAc(b1-2)Man(a1-3)Man(b1-4)GlcNAc(b1-4)GlcNAc
# In short: as §1
# [38] = biological target: Gal(b1-4)GlcNAc(b1-2)Man(a1-3)[Gal(b1-4)GlcNAc(b1-2)Man(a1-6)]Man(b1-4)GlcNAc(b1-4)GlcNAc
# In short: as §1
# [39] = biological target: Gal(b1-4)GlcNAc(b1-2)Man(a1-3)[Gal(b1-4)GlcNAc(b1-2)Man(a1-6)]Man(b1-4)GlcNAc(b1-4)[Fuc(a1-6)]GlcNAc
# In short: as §1
# [40] = biological target: Gal(b1-4)GlcNAc(b1-2)Man(a1-3)[Gal(b1-4)GlcNAc(b1-2)Man(a1-6)][Gal(b1-4)GlcNAc(b1-4)]Man(b1-4)GlcNAc(b1-4)[Fuc(a1-6)]GlcNAc
# In short: as §1
# [41] = biological target: Gal(b1-4)GlcNAc(b1-2)Man(a1-3)[Gal(b1-4)GlcNAc(b1-2)Man(a1-6)][GlcNAc(b1-4)]Man(b1-4)GlcNAc(b1-4)[Fuc(a1-6)]GlcNAc
# In short: as §1
# [42] = biological target: Gal(b1-4)GlcNAc(b1-2)Man(a1-3)[GlcNAc(b1-2)Man(a1-6)]Man(b1-4)GlcNAc(b1-4)GlcNAc
# In short: as §1
# [43] = biological target: Gal(b1-4)GlcNAc(b1-2)Man(a1-3)[GlcNAc(b1-4)][Gal(b1-4)GlcNAc(b1-2)Man(a1-6)]Man(b1-4)GlcNAc(b1-4)GlcNAc
# In short: as §1
# [44] = biological target: Gal(b1-4)GlcNAc(b1-2)Man(a1-3)[Man(a1-6)]Man(b1-4)GlcNAc(b1-4)GlcNAc
# In short: as §1
# [45] = biological target: Gal(b1-4)GlcNAc(b1-2)Man(a1-6)Man(b1-4)GlcNAc(b1-4)GlcNAc
# In short: as §1
binder,measurement,setting,value
B1,glycan array binding signal (z-score),[1],0.236
same,glycan array binding signal (z-score),[2],-0.545
same,glycan array binding signal (z-score),[3],-0.202
same,glycan array binding signal (z-score),[4],-0.437
same,glycan array binding signal (z-score),[5],-0.484
same,glycan array binding signal (z-score),[6],-0.662
same,glycan array binding signal (z-score),[7],-0.795
same,glycan array binding signal (z-score),[8],-0.165
same,glycan array binding signal (z-score),[9],0.298
same,glycan array binding signal (z-score),[10],0.942
same,glycan array binding signal (z-score),[11],-0.126
same,glycan array binding signal (z-score),[12],0.016
same,glycan array binding signal (z-score),[13],-0.474
same,glycan array binding signal (z-score),[14],0.17
same,glycan array binding signal (z-score),[15],-0.579
same,glycan array binding signal (z-score),[16],-0.32
same,glycan array binding signal (z-score),[17],-0.285
same,glycan array binding signal (z-score),[18],-0.452
same,glycan array binding signal (z-score),[19],-0.089
same,glycan array binding signal (z-score),[20],-0.204
same,glycan array binding signal (z-score),[21],-0.162
same,glycan array binding signal (z-score),[22],-0.017
same,glycan array binding signal (z-score),[23],-0.637
same,glycan array binding signal (z-score),[24],0.528
same,glycan array binding signal (z-score),[25],1.03
same,glycan array binding signal (z-score),[26],0.367
same,glycan array binding signal (z-score),[27],-0.759
same,glycan array binding signal (z-score),[28],-0.689
same,glycan array binding signal (z-score),[29],0.335
same,glycan array binding signal (z-score),[30],-0.444
same,glycan array binding signal (z-score),[31],-0.445
same,glycan array binding signal (z-score),[32],-0.241
same,glycan array binding signal (z-score),[33],1.09
same,glycan array binding signal (z-score),[34],-0.35
same,glycan array binding signal (z-score),[35],-0.045
same,glycan array binding signal (z-score),[36],-0.207
same,glycan array binding signal (z-score),[37],0.285
same,glycan array binding signal (z-score),[38],-0.712
same,glycan array binding signal (z-score),[39],-0.445
same,glycan array binding signal (z-score),[40],-0.712
same,glycan array binding signal (z-score),[41],0.054
same,glycan array binding signal (z-score),[42],-0.019
same,glycan array binding signal (z-score),[43],-0.185
same,glycan array binding signal (z-score),[44],-0.444
same,glycan array binding signal (z-score),[45],-0.645

# A different layout for some results above.
binder | measurement | setting | value
B1 | glycan array binding signal (z-score) | [16] | -0.32
same | glycan array binding signal (z-score) | [17] | -0.285
same | glycan array binding signal (z-score) | [18] | -0.452
